Patent publication US11814364B2, “Pyridine N-oxide derivatives useful as factor XIa inhibitors” (Janssen Pharmaceutica NV, priority 2021, dated 2023)
Structures were worked out from names or drawings and are uncertain.

Chains of the proteins cited; added tags and fusions are not shown. Residues count along the entry.
UniProt P03952, 391-638 limits assumed: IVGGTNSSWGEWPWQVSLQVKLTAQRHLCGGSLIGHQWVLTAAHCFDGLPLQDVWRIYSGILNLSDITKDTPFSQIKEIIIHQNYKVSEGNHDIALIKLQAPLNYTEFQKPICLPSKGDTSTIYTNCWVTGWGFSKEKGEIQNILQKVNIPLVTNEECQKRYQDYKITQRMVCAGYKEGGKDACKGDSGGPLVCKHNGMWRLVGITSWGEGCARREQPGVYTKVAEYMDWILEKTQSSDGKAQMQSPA
UniProt P03952, 20-390 partner limits assumed: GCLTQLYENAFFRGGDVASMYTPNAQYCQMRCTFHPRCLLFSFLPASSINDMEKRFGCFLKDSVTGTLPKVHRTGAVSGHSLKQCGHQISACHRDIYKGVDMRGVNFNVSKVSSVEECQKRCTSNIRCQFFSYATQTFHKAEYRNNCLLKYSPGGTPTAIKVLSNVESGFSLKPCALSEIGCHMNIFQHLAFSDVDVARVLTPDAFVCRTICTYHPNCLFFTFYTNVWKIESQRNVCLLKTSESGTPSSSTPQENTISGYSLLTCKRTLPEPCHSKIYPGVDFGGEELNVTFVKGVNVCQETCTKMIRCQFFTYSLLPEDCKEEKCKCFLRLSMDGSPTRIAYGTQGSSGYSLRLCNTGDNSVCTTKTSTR

Each compound was assayed against human plasma kallikrein (Homo sapiens, UniProt P03952) (assay: Kallikrein inhibition FLINT assay with quenched AMC peptide substrate Z-Gly-Pro-Arg-AMC (end point EP or kinetic KIN reads)). Conditions: read-out: Kallikrein (KIN) IC50; kinetic reads at 5 min intervals over 30 min.
Format: biochemical

| IC50 | Compound |
| --- | --- |
| 7.3 nM | COc1cc(C(CC2CC2)n2cc(-c3ccc(NC(C)=O)nc3F)cn2)[n+]([O-])cc1-c1c(-n2cnnn2)ccc(Cl)c1F (stereo not drawn) |
| 259 nM | [O-][n+]1cc(-c2c(-n3cnnn3)ccc(Cl)c2F)ccc1C(Cn1ccc(-c2ccc(F)cn2)n1)n1cc(-c2ccnc(C(F)(F)F)c2)cn1 (single isomer, unassigned) [P523] |
| 6 nM | COc1cc(C(CC2CC2)n2cc(-c3ccn(C)c(=O)c3)cn2)[n+]([O-])cc1-c1c(-n2cnnn2)ccc(Cl)c1F (stereo not drawn) |
| 126 nM | [O-][n+]1ccc(-c2cnn(C(CCOC(F)F)c3ccc(-c4c(-n5cnnn5)ccc(Cl)c4F)c[n+]3[O-])c2)nc1 (stereo not drawn) |
| 24.2 nM | CN(CC(c1ccc(-c2c(-n3cnnn3)ccc(Cl)c2F)c[n+]1[O-])n1cc(-c2ccncc2)cn1)C(=O)CCC(=O)N1CCCCC1 (stereo not drawn) |
| 141 nM | [O-][n+]1cc(-c2c(-n3cnnn3)ccc(Cl)c2F)ccc1C(Cn1ccc(-c2ccc(F)cn2)n1)n1cc(-c2ccnc(C(F)(F)F)c2)cn1 (single isomer, unassigned) [P522] |
